From publication PMC8933280
These are yes or no findings as the source states them, for the method shown. Binding seen in cells or lysates may run through a third protein. Some binding calls cover weakened binding; strength is not graded here.

Sequences of proteins named here, by UniProt entry; tags and fusion partners are left off. A change or cut given only in a name is not applied to a line headed by its entry. Residues count along the entry.
UniProt Q16659: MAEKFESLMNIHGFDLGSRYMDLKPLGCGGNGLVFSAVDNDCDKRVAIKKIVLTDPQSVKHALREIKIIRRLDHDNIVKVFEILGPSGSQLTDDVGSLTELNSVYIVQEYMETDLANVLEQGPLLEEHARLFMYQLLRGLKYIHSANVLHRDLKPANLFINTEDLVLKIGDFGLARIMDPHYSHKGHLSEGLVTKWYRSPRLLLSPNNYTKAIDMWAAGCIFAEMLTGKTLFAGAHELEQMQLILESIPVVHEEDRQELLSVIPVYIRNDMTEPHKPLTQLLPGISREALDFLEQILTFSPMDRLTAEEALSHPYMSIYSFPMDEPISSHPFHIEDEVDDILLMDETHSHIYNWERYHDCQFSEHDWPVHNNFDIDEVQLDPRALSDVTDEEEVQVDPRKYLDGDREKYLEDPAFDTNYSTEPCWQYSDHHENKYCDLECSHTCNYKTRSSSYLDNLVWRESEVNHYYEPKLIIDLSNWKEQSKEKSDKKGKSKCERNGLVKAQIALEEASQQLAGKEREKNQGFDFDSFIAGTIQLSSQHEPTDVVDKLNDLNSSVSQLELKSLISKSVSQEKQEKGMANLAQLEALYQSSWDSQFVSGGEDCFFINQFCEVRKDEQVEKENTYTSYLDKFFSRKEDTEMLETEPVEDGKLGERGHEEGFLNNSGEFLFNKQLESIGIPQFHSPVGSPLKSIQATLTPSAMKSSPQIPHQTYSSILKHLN
Erk3(1-340): residues 1-340 of Q16659
Erk3(341-721): residues 341-721 of Q16659
UniProt Q91UZ4: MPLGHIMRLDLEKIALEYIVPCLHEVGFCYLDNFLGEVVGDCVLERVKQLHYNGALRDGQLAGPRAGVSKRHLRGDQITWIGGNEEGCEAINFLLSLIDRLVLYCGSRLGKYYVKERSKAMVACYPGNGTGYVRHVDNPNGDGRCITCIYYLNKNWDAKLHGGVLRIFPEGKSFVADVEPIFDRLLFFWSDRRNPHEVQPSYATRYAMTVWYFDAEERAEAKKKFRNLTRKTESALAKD
UniProt P11142: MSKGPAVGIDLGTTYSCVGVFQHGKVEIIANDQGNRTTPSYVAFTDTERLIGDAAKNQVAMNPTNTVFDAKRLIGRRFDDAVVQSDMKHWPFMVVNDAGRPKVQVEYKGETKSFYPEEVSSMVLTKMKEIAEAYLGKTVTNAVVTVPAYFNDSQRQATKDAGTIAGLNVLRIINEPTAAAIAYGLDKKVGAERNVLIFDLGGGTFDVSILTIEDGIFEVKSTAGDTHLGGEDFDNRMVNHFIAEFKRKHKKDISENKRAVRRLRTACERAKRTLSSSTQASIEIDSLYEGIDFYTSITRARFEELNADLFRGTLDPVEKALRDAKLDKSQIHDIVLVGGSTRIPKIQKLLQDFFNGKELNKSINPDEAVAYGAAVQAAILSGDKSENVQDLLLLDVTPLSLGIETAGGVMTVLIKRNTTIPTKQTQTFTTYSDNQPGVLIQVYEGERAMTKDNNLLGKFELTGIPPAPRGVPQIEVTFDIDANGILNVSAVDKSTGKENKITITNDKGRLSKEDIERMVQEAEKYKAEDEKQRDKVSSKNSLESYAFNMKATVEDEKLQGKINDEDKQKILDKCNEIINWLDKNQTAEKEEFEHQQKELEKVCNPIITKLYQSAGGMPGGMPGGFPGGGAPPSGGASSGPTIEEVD

What was measured:
[1] = target: Erk3(P25A), hydroxylation-resistant mutant (UniProt Q16659); experiment: pull-down; GST pull-down: lysates of transfected HEK293T cells (300-700 ug) in NETN buffer with Glutathione-Sepharose 4B beads; immunoblot
[2] = target: GST-Erk3, full-length (pEBG) (UniProt Q16659); experiment: as above
[3] = target: Erk3(P25A), hydroxylation-resistant mutant (UniProt Q16659); experiment: co-IP; lysates of transfected HEK293T cells; antibody (anti-Flag or control mouse IgG) with Protein A/G agarose overnight; immunoblot (anti-myc, anti-HA)
[4] = target: Flag-tagged Erk3 (extracellular signal-regulated kinase 3), full-length (UniProt Q16659); experiment: as above
[5] = target: GST-EGLN3, full-length (mouse) (UniProt Q91UZ4); experiment: pull-down; GST pull-down: lysates of transfected HEK293T cells (300-700 ug) in NETN buffer with Glutathione-Sepharose 4B beads; immunoblot
Erk3(341-721) = Erk3(341-721) (UniProt Q16659); experiment: pull-down; GST pull-down from HEK293T cells co-transfected with Erk3 or a fragment, HSC70 or LAMP2A, and EGLN1, EGLN2, EGLN3 or R205K; DMOG in Fig. 4D and 4I
Erk3(1-340) = Erk3(1-340) (UniProt Q16659); experiment: as above
[6] = target: GST-Erk3, full-length (pEBG) (UniProt Q16659); experiment: as above

Measured: binding

EGLN3 R205K, hydroxylase-inactive mutant (from UniProt Q91UZ4 1-239) (enzyme)
binds: [1] | [2] | [3] | [4]

EGLN3, wild-type (from UniProt Q91UZ4 1-239) (enzyme)
binds: [1] | [2] | [3] | [4]

Flag-tagged Erk3 (extracellular signal-regulated kinase 3), full-length (from UniProt Q16659 1-721)
binds: [5]

heat shock cognate protein of 70 kDa (HSC70) (from UniProt P11142 1-646)
not listed: [3] | [5]
binds: all other assays above
